Test results from the supplement of paper PMC5949888.
± gives the standard deviation of the averaged measurements. Most values lie at the floor of the assay. Slopes are relative: functional sequences can read slightly below zero.

These substances were tested on Saccharomyces cerevisiae PS128 hsf1 delta, HSF1(1-493) fusion (assay: growth estimate (transactivation domain function in HSF1 fusion, heat-shock survival) (a.u. (slope of normalised read count over time)); higher = stronger growth at 37°C, i.e. more transactivation activity). Details: library: random library.

| Substance | growth estimate |
| --- | --- |
| ESFCPVHPPKKGLFRCS | < -0.25 |
| NLGQFTVEPERYDHRWPGNS | < -0.25 |
| GWVRLAALLSIWLNRLPFNP | < -0.25 |
| GPTNCTRA | < -0.25 |
| YIQ | < -0.25 |
| HQEHRCRVPVTVQEVDIRKF | 0.0382 |
| IEMKRRIIFIKHT | < -0.25 |
| MFP | < -0.25 |
| TCINALEASWADPAWRRAIK | < -0.25 |
| FHVYEGVGSTWEWCPFLQPN | 2.62 |
| SSER | < -0.25 |
| RQSTDELHLLS | < -0.25 |
| AVARIKNQAPYCPSTSEHGT | < -0.25 |
| SGTNEGEFEERKGSIPLYGP | < -0.25 |
| RGTRRTFNAWGPMWV | < -0.25 |
| RYSRNLECKDCRYLPPGLTC | < -0.25 |
| LTTGAIHVVDIPEDRVLCDG | < -0.25 |
| PPNIRSEFSERTQSDITCFG | < -0.25 |
| KTETFPTSNRVGIQPPQLCH | < -0.25 |
| SKCLCCAPTLTKQWASDSLG | < -0.25 |
| RALVQTLRGSSGFVEWEGSR | < -0.25 |
| GGLVKLTPSIFVSSAALRSG | < -0.25 |
| WMRSTHHSCMNPPASVISDD | < -0.25 |

| Substance | growth estimate |
| --- | --- |
| REWGWSRLTLRATKKGTLSG | < -0.25 |
| PFHKFGYI | < -0.25 |
| SGTMRACRINLKLTGCEAKP | -0.246 |
| THQYHSSAQSEICSARPGDG | < -0.25 |
| SETKLSWKPVVGRRAPITVG | < -0.25 |
| GGWSDMALQRCV | -0.243 |
| RLMG | < -0.25 |
| WCFPTYGTFYSDTPQRVSIL | < -0.25 |
| ISGYFGNPHALLKKARCA | < -0.25 |
| LPWAFVCSLSSTVSISTFVI | < -0.25 |
| PVAGEPGFNLFLKS | < -0.25 |
| IIS | < -0.25 |
| PSLWSVTH | < -0.25 |
| GPCC | < -0.25 |
| GSIEGDY | < -0.25 |
| RYSLVS | < -0.25 |
| IRGDYSPGGECQI | < -0.25 |
| IPFPTSRVIPVRGGVYSNAC | < -0.25 |
| YQEDRRPGRRADEP | -0.245 |
| YYNRSSLSTPYYTPAPRNVA | < -0.25 |
| WSNESRTSGRVK | -0.25 |
| PEGT | < -0.25 |
| WGG | < -0.25 |

| Substance | growth estimate |
| --- | --- |
| ASLQELASKSPG | < -0.25 |
| CFGLGRL | < -0.25 |
| RLNP | -0.247 ± 0.0037 |
| VLGGRNCHPRQLQPVAGKNV | < -0.25 |
| TTCSATTCRGECWSRNGTSF | < -0.25 |
| LSDRSTHHGHDASST | < -0.25 |
| SPGGHDTLRHLNWPRCGSIG | < -0.25 |
| VEVLFASVSFQHGELYFFVR | < -0.25 |
| KDKGRRRPLRTWGKVGNLHW | < -0.25 |
| EHRACATHIELLVLFQRCTS | < -0.25 |
| SVHMG | < -0.25 |
| QSVVCARVGPYATLHQCALL | < -0.25 |
| NVVGVAIGASLSGRRASPVV | < -0.25 |
| LWGLSGGVTWLQPANIWPLM | < -0.25 |
| KSGGSQAMEPTQWTNTVGQV | < -0.25 |
| EQEDDVPVIDWGASRWH | < -0.25 |
| YLSSWQYDTPCGMPYRGS | < -0.25 |
| HCRSDGRFSALISIIKRKHF | < -0.25 |
| IIEHVKFNL | < -0.25 |
| SNRSLRRTSVLLILPILVST | < -0.25 |
| APRPTSDCTS | < -0.25 |
| SLVVLRGLLLTLVQA | < -0.25 |
| GMIMGSTLLKHVRLLYGLRD | -0.208 |

| Substance | growth estimate |
| --- | --- |
| VVEGNVQALRHAGSWGHSGK | < -0.25 |
| RVQTATLLYIREPCM | < -0.25 |
| RKGTAGNGKS | < -0.25 |
| QDDRAKSFTV | < -0.25 |
| LVSRRHCQIPDLWASGACGG | < -0.25 |
| HSI | < -0.25 |
| APVVSFSKYHAML | < -0.25 |
| SWK | < -0.25 |
| AGNFGKICAREAHMSTPEAG | < -0.25 |
| IRIA | < -0.25 |
| WGWTMDLL | < -0.25 |
| RVSCETDLTCANSGEDSIDL | < -0.25 |
| RLSPK | < -0.25 |
| LPIVSLPCRLPTLGYKSISA | < -0.25 |
| LGGKIGECKVVRTLSHSSEA | < -0.25 |
| YRTPKPRDYRN | < -0.25 |
| QTPSKIDRSYEGVIYIASFP | < -0.25 |
| LGTIKPTGTG | < -0.25 |
| GFRG | < -0.25 |
| WAICGSVVASAAAPG | < -0.25 |
| TGSLELVRTRPTTGLTGLSI | < -0.25 |
| RTCYSLRGL | < -0.25 |
| GIPSRPLLREFCLASTGIHG | < -0.25 |

Another view of part of the listing above:
VVEGNVQALRHAGSWGHSGK
  growth estimate: < -0.25
QDDRAKSFTV
  growth estimate: < -0.25
SWK
  growth estimate: < -0.25
AGNFGKICAREAHMSTPEAG
  growth estimate: < -0.25

Additional records.

| Substance | growth estimate |
| --- | --- |
| SFATVLPCPVLLQKFFLSRR | < -0.25 |
| GCTRICTQ | < -0.25 |
| SVNSTLSL | < -0.25 |
| LSVSAIMCESLNFHAEILGR | < -0.25 |
| LGTNDRSVGVIAFGRVPPSN | < -0.25 |
| MVLFSTVISQQASRGIAGFA | -0.246 |
| DTIHMVRVYKTTPSKVPCRG | < -0.25 |
| PAMS | < -0.25 |
| LSSVKRVLTIHSSQGVTWAS | < -0.25 |
| GRPNERPLPSN | < -0.25 |
| LVSTRTSNVSHATSVS | < -0.25 |
| RWVRQCRPGDSNQSIAGRNV | < -0.25 |
| AWRTSRKALSVPFRVILGST | < -0.25 |
| VWSVNTLTDACRRYRPVRIA | < -0.25 |
| GLLNFAHVHLWAVHAELEYP | < -0.25 |
| VWPARY | < -0.25 |
| PHLYLVSGGRFVKLIQFR | < -0.25 |
| LCNTDWYYRFRRPRIAGRHE | < -0.25 |
| ADGPITLEVMTIPQ | < -0.25 |
| WTIRVYMRLIF | < -0.25 |
| YLQMH | < -0.25 |
| GLRLERLIPLAISGSTAVRA | -0.248 |
| LVRNGGRPCTRHGMERRTPL | -0.151 |

In another format: entries from further up
Substance | growth estimate
LGTNDRSVGVIAFGRVPPSN | < -0.25
MVLFSTVISQQASRGIAGFA | -0.246
DTIHMVRVYKTTPSKVPCRG | < -0.25
PAMS | < -0.25

(continued)

| Substance | growth estimate |
| --- | --- |
| GKCLQFRVQVNCRGSPAGGN | < -0.25 |
| LRRLGWSGPPS | < -0.25 |
| CASG | < -0.25 |
| REGGSRRGNV | < -0.25 |
| VTGSK | < -0.25 |
| GGNIGLIEP | < -0.25 |
| AGVESRWVYDKCVRSSCSCS | < -0.25 |
| LRQSVAY | < -0.25 |
| MGKDATLLAADRQV | < -0.25 |
| VNTSSRALNIAIFRSDHGGP | < -0.25 |
| VLINVADGI | < -0.25 |
| TGVSVPVPALCGKERIIRGS | < -0.25 |
| GWLFGDCATS | -0.229 |
| STGRPLVVRKWSTGPRTPHT | < -0.25 |
| RQAS | < -0.25 |
| WLASDEI | < -0.25 |
| EHWSDQPGSALVQSRN | < -0.25 |
| QAVLDCVSVLLAKI | < -0.25 |
| PWGIYSYWN | < -0.25 |
| YHRSVLC | -0.246 |
| VNRSGRNVEAHESIKLDLNF | < -0.25 |
| RTTY | < -0.25 |
| KRWTVKGKDRKWHMQCSLTR | < -0.25 |

Single values from the results shown.
Entry of PFHKFGYI under growth estimate: < -0.25
Entry of EQEDDVPVIDWGASRWH under growth estimate: < -0.25

Additional records

| Substance | growth estimate |
| --- | --- |
| KIGL | < -0.25 |
| FINELLNYQLQHFDFSGQHS | 0.0978 |
| LLLPEVDISGWVIYPSENGH | -0.247 |
| GPKGVSGRKE | -0.246 |
| VSYAAGELIFAHSRAGFTCE | < -0.25 |
| NSSDRKL | < -0.25 |
| HNFTSRGICASFKVFSSGNP | -0.239 |
| GPISRIVRNQS | -0.241 |
| DAREIDL | < -0.25 |
| LTTHNKLRHAPGLRMCSETA | -0.246 |
| PRK | < -0.25 |
| ATLSRRVWRVIIRLKRAIHI | < -0.25 |
| SADPRRLNVLLTIAALVFAW | < -0.25 |
| VQGSNCGHSVDKPLGPKTLP | < -0.25 |
| RTEGDFCTEVGRRHGVGGPC | < -0.25 |
| HRSTAKDMRVPGGFSECSYT | < -0.25 |
| EEVQV | < -0.25 |
| REARERLPSCIPDSR | < -0.25 |
| GRFGVHKDGRFFGY | < -0.25 |
| FSPSGLYARTSYVIVTCDYA | < -0.25 |
| DGSRHRPLCRGKSPE | < -0.25 |
